# Patent US9770537B2, “Solvent methods for preparing crystalline macrolide particulates, compositions, and articles containing particulates” (SurModics, Inc., priority 2013, dated 2017)
# At least one structure is not confirmed: it was looked up by name or label, or the drawing left a doubt.
# Assay: Particle size observed by microscopy (electron micrograph)
# Type: physicochemical
# Settings: commercial stock powder, observed using magnification
smiles,measurement,value
"CO[C@H]1C[C@@H]2CC[C@@H](C)[C@@](O)(O2)C(=O)C(=O)N2CCCC[C@H]2C(=O)O[C@H]([C@H](C)C[C@@H]2CC[C@@H](O)[C@H](OC)C2)CC(=O)[C@H](C)/C=C(\C)[C@@H](O)[C@@H](OC)C(=O)[C@H](C)C[C@H](C)/C=C/C=C/C=C/1C [Rapamycin, rapamycin]","minimal dimensions of flakes, generally",greater than 25 μM
same,"minimal dimensions of flakes, more typically",greater than 100 μM
